Values quoted from earlier work in patent publication US20250224401A1, “METHODS OF DIAGNOSING B CELL MALIGNANCIES, DETECTING B CELL MALIGNANCY RELAPSE, AND TREATING THEREOF” (Rutgers, The State University of New Jersey, priority 2022, published 2025).
At least one structure is not confirmed: it was looked up by name or label, or the drawing left a doubt.

Tested on: patients with B cell malignancies
Details: in vivo

## C=CC(=O)N1CCC[C@@H](n2nc(-c3ccc(Oc4ccccc4)cc3)c3c(N)ncnc32)C1 [ibrutinib]
  efficacy in patients with B cell malignancies: highly effective
